For one assay, the target named is T1, Cdc1-J10 (Schizosaccharomyces pombe, UniProt P87324 1-462, Tyr-ArgGlyThrProTyr-Met).
T1 construct: Cdc1, S. pombe, with a pentapeptide inserted after residue 77; also called J11; E6; source: yeast two-hybrid fusion, in S. cerevisiae CTY10-5d
T1 sequence (looked up): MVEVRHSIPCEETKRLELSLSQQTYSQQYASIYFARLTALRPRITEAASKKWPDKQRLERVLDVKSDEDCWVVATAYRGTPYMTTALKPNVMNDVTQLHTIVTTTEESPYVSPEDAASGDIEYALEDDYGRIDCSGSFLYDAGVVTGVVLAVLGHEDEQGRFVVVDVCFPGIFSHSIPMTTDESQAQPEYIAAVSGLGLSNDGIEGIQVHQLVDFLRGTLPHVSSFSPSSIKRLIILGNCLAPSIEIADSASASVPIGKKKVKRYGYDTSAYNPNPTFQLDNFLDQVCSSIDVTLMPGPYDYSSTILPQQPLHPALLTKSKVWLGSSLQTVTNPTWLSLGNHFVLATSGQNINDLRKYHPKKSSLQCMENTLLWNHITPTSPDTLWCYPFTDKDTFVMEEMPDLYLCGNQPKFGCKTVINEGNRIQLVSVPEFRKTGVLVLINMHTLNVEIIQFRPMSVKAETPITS
Kind of assay: two-hybrid; LexA-Cdc1 bait (pBTM116 or pBTM116BN) with Gal4-Pol3 prey and co-expressed c-myc-tagged Cdc27 (pAA-Cdc27) in S. cerevisiae CTY10-5d; ONPG liquid culture beta-galactosidase assay, mean of triplicates, as percent of wild-type Cdc1.

The target in the next assay is T2, Cdc1-J21 (Schizosaccharomyces pombe, UniProt P87324 1-462, Leu-GlyValProGlnLeu-Asp).
T2 construct: Cdc1, S. pombe, with a pentapeptide inserted after residue 275; source: yeast two-hybrid fusion, in S. cerevisiae CTY10-5d
T2 sequence (looked up): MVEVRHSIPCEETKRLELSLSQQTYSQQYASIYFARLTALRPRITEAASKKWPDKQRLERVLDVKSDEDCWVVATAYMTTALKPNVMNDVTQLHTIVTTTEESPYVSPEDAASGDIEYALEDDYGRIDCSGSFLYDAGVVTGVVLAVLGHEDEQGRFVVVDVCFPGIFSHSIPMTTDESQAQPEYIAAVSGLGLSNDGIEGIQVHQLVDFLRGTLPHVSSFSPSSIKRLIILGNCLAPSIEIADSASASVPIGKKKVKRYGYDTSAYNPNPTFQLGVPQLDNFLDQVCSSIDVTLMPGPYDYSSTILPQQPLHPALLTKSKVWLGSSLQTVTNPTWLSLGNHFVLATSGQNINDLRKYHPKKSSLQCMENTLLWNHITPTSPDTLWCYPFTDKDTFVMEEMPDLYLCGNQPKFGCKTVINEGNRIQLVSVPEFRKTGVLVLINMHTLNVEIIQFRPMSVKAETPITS
Kind of assay: two-hybrid; LexA-Cdc1 bait (pBTM116 or pBTM116BN) with Gal4 activation domain-Cdc27 prey (pGAD2F-Cdc27) in S. cerevisiae CTY10-5d; ONPG liquid culture beta-galactosidase assay, mean of triplicates, as percent of wild-type Cdc1.

In another assay the target is T3, Cdc1-E2 (Schizosaccharomyces pombe, UniProt P87324 1-26).
T3 construct: Cdc1, S. pombe, truncated after amino acid 26 by a 16 nt insertion; residues coded by the 16 nt insertion before the stop codon (printed as GlyValProLysTer); source: yeast two-hybrid fusion, in S. cerevisiae CTY10-5d
T3 chain: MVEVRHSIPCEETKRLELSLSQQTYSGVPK
Described as above.

The next assay concerns the target T4, Cdc1-J3 (Schizosaccharomyces pombe, UniProt P87324 1-462, Leu-GlyValProLeuLeu-Asp).
T4 construct: Cdc1, S. pombe, with a pentapeptide inserted after residue 62; also called E3; E8; source: yeast two-hybrid fusion, in S. cerevisiae CTY10-5d
T4 sequence (looked up): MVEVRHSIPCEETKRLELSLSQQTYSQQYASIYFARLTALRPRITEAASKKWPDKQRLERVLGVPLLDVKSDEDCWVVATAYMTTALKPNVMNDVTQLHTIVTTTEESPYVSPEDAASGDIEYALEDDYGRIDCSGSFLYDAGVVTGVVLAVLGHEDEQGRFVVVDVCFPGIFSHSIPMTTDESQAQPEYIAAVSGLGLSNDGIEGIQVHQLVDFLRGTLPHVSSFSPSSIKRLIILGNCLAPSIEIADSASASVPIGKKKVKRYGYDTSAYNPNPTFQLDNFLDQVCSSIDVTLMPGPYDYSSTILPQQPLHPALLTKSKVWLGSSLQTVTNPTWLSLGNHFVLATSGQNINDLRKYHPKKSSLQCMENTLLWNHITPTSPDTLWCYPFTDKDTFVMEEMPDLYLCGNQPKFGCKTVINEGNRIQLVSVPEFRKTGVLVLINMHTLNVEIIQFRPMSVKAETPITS
The description is as above.

No constants are given. Whether binding was seen depends on the method and setting. Tags and fused reporters may be left off the sequences shown.

B1: Pol3 (fission yeast DNA polymerase delta catalytic subunit) (natural protein, Schizosaccharomyces pombe, UniProt P30316 1-1086, looked up)
chain: MTDRSSNEGVVLNKENYPFPRRNGSIHGEITDVKRRRLSERNGYGDKKGSSSKEKTSSFEDELAEYASQLDQDEIKSSKDQQWQRPALPAINPEKDDIYFQQIDSEEFTEGSVPSIRLFGVTDNGNSILVHVVGFLPYFYVKAPVGFRPEMLERFTQDLDATCNGGVIDHCIIEMKENLYGFQGNEKSPFIKIFTTNPRILSRARNVFERGEFNFEELFPVGVGVTTFESNTQYLLRFMIDCDVVGMNWIHLPASKYQFRYQNRVSNCQIEAWINYKDLISLPAEGQWSKMAPLRIMSFDIECAGRKGVFPDPSIDPVIQIASIVTQYGDSTPFVRNVFCVDTCSQIVGTQVYEFQNQAEMLSSWSKFVRDVDPDVLIGYNICNFDIPYLLDRAKSLRIHNFPLLGRIHNFFSVAKETTFSSKAYGTRESKTTSIPGRLQLDMLQVMQRDFKLRSYSLNAVCSQFLGEQKEDVHYSIITDLQNGTADSRRRLAIYCLKDAYLPQRLMDKLMCFVNYTEMARVTGVPFNFLLARGQQIKVISQLFRKALQHDLVVPNIRVNGTDEQYEGATVIEPIKGYYDTPIATLDFSSLYPSIMQAHNLCYTTLLDSNTAELLKLKQDVDYSVTPNGDYFVKPHVRKGLLPIILADLLNARKKAKADLKKETDPFKKAVLDGRQLALKVSANSVYGFTGATNGRLPCLAISSSVTSYGRQMIEKTKDVVEKRYRIENGYSHDAVVIYGDTDSVMVKFGVKTLPEAMKLGEEAANYVSDQFPNPIKLEFEKVYFPYLLISKKRYAGLFWTRTDTYDKMDSKGIETVRRDNCPLVSYVIDTALRKMLIDQDVEGAQLFTKKVISDLLQNKIDMSQLVITKALSKTDYAAKMAHVELAERMRKRDAGSAPAIGDRVAYVIIKGAQGDQFYMRSEDPIYVLENNIPIDAKYYLENQLSKPLLRIFEPILGEKASSLLHGDHTRTISMAAPSVGGIMKFAVKVETCLGCKAPIKKGKTALCENCLNRSAELYQRQVAQVNDLEVRFARLWTQCQRCQGSMHQDVICTSRDCPIFYMRIAEHKKLQQSVDLLKRFDEMSW
notes: DNA polymerase delta catalytic subunit Pol3, S. pombe; prey plasmid named pACT-Pol3 in the results and pGAD2F-Pol3 in the methods; also called Gal4-Pol3; pACT-Pol3; source: yeast two-hybrid fusion, in S. cerevisiae CTY10-5d
For B1, in the assay with Cdc1-J10, the binding entry was “no binding (tested: <1% of wild type)”.

B2: Cdc27 (fission yeast DNA polymerase delta C-subunit) (natural protein, Schizosaccharomyces pombe, UniProt P30261 1-372, looked up)
chain: MEEWRNFLDIKVINESSLVTVDNLSLQLDISSEKAQEYLNMFYQGNDFLYPIYLIHGQPIDDEINLEIDEESQPISNFPVLQYILCDKSSLQEKQSRLKSGYKTVIFALSSAPLSDFDELLPAVYEIREKDVLYKKEDADKYGFIFNENSVPRVLKKAPSTHSPQLSVPSKTSTIDKTDTRSTEKTKGKDIFSNARNQKGNSSRKNKKAPLENHKEKEPLLPKEEKLSEQAKRERDDLKNIMQLEDESVSTTSVHDSEDDNLDSNNFQLEIGTEAKSAAPDEPQEIIKSVSGGKRRGKRKVKKYATTKDEEGFLVTKEEEVWESFSEDENISTGTSNVVRNKPTTVNIATKKKNTAQSKPQQKSIMSFFGKK
notes: DNA polymerase delta C-subunit Cdc27, S. pombe; prey plasmid pGAD2F-Cdc27; also called pGAD2F-Cdc27; source: yeast two-hybrid fusion, in S. cerevisiae CTY10-5d
Turning to B2, the binding entry with Cdc1-J21, with Cdc1-E2 and with Cdc1-J3 was “no binding (tested: <1% of wild type (Table 1))” throughout.

Values taken from article PMC2734569, “Functional mapping of the fission yeast DNA polymerase δ B-subunit Cdc1 by site-directed and random pentapeptide insertion mutagenesis” (BMC Molecular Biology, 2009).
